We go through 1 substance from PMC9310128.

In this experiment the target is T1, Biotinylated PEP3.
T1 sequence (peptide, biotin (position not stated); cyclic peptide): CPATAERPC
Put plainly: pull-down; 30 ug biotinylated PEP3 on streptavidin-coated magnetic beads, 800 ug of SAT SVF lysate (WT and TrkA EC KO), overnight at 4 °C, washed with 0.05% Tween-20 TBS; anti-TrkA immunoblot; only the target purified. In general terms: In western blotting, separated proteins are transferred to a membrane and probed.

These are yes or no findings as the source states them, for the method shown. In cells and extracts the contact can be indirect. A result given as binding can be weak or reduced; the word gives no strength.

Consider “TrkA, smaller isoform (arrowhead in Figure 1F) (mouse (endogenous in adipose tissue)) (receptor)”, for which the binding entry is “binds”.
